Test results as given in article PMC6123728.
These are yes or no findings as the source states them, for the method shown. For some assays here: In cells and extracts the contact can be indirect. Some entries that bind do so weakly or less than the wild type. Where a sequence is shown, tags or fusion partners need not be part of it.

Sequences of proteins named here, by UniProt entry; tags and fusion partners are left off.
UniProt P33242: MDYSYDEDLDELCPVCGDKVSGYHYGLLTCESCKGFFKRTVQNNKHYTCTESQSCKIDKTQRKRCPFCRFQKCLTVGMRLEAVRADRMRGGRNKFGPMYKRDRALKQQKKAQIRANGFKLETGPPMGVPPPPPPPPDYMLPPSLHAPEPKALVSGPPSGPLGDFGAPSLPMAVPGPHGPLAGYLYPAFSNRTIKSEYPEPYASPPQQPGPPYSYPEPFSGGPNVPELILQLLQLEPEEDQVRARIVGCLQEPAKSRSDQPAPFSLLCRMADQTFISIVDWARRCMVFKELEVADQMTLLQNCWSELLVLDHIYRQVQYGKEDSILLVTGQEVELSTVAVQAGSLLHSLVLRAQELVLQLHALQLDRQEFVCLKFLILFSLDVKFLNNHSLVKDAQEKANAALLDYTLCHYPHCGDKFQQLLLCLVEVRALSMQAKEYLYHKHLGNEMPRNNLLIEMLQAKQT

T1: FLAG-SREBP-2 (1-481) (UniProt Q12772)
T1 sequence: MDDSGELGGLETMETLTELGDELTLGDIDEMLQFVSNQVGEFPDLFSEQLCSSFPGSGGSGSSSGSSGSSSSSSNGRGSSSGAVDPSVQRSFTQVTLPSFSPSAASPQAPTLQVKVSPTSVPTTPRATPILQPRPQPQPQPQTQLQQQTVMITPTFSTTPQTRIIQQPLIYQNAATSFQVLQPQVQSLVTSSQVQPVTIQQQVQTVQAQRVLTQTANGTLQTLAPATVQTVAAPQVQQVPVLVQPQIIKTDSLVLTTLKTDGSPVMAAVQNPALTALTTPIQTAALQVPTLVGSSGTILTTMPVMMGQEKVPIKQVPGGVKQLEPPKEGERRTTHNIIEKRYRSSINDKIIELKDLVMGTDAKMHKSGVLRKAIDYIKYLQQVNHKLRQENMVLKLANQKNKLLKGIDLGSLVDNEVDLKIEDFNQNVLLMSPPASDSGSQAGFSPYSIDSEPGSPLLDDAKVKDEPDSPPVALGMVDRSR

B1: HA-SREBP-2 (1-481) (domain or fragment, UniProt Q12772 1-481)
chain: T1 sequence

What was measured:
[1] = target: T1, FLAG-SREBP-2 (1-481); test: pull-down; purified FLAG-SREBP-2 (300 ng) incubated overnight at 4 °C with Y-1 nuclear extract in 1 ml binding buffer (50 mM HEPES-KOH pH 7.4, 150 mM NaCl, 1 mM EDTA, 0.1% NP-40); immunoprecipitated with anti-FLAG magnetic beads; washes with 150 and 300 mM NaCl; eluted with FLAG peptide; western blot for Ad4BP/SF-1, FLAG, CREB; only the target purified
[2] = target: FLAG-Ad4BP/SF-1 (UniProt P33242); test: co-IP; in vitro binding assay: purified HA-SREBP-2 (1-481) (300 ng) and FLAG-Ad4BP/SF-1 (300 ng) incubated overnight at 4 °C in 1 ml binding buffer (50 mM HEPES-KOH pH 7.4, 150 mM NaCl, 1 mM EDTA, 0.1% NP-40); immunoprecipitated with anti-FLAG antibody; western blot with anti-HA or anti-FLAG; both …

Row | Molecule | binding [1] | binding [2]
1 | Ad4BP/SF-1 (NR5A1), endogenous in Y-1 cell nuclear extract (from UniProt P33242 1-462) | binds | 
2 | B1 |  | binds
